Results deposited as PubChem BioAssay AID1508597 (Cure First, 2020)
Shown is an unselected part of the about 2,100 reagents, in one setting of the screen. 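Calls flag viability under 80% in either arm, not effects specific to rucaparib; the reference for percent is not stated.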 Unmarked entries are inactive. The record does not give: the 100% reference.

- Screen: 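Knock-downs altering ovarian cancer cell survival with or without PARP inhibitor rucaparib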 (primary screen)
- Cells: human ovarian carcinoma lines grown from tumours: OCI-P5x (papillary serous) and OCI-C5x (clear cell)
- Reagents: siRNA pool against human genes, 1.25 pmol siRNA per well
- Timing: 72 h or 96 h, depending on the cell culture
- Challenge: rucaparib 20 µM (about IC30) or vehicle, present until read-out
- Rucaparib or vehicle: Vehicle
- Cell line: OCI-P5x (serous)
- Read-out: 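ATP luminescence measured at 72 or 96 h according to the culture, then normalised and expressed as percent viability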
- Scale: viability, normalised: higher = more viable cells remaining
- Rule for the call: 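a well counts as a hit if its normalised viability is under 80 percent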
- Calls: active = viability under 80%; inactive = viability 80% or more

Gene | technical replicate | viability, normalised (%)
GCK (GeneID 2645) | 1 | 71.6 (active)
GCK (GeneID 2645) | 2 | 72.4 (active)
GCK (GeneID 2645) | 3 | 84.7
MED30 (GeneID 90390) | 1 | 56.1 (active)
MED30 (GeneID 90390) | 2 | 61.5 (active)
MED30 (GeneID 90390) | 3 | 60.4 (active)
RBL1 (GeneID 5933) | 1 | 51.1 (active)
RBL1 (GeneID 5933) | 2 | 55.9 (active)
RBL1 (GeneID 5933) | 3 | 78.9 (active)

Entries above with an active call (8):
Gene | technical replicate | viability, normalised (%)
GCK (GeneID 2645) | 1 | 71.6 (active)
GCK (GeneID 2645) | 2 | 72.4 (active)
MED30 (GeneID 90390) | 1 | 56.1 (active)
MED30 (GeneID 90390) | 2 | 61.5 (active)
MED30 (GeneID 90390) | 3 | 60.4 (active)
RBL1 (GeneID 5933) | 1 | 51.1 (active)
RBL1 (GeneID 5933) | 2 | 55.9 (active)
RBL1 (GeneID 5933) | 3 | 78.9 (active)

Additional records follow.
Gene | technical replicate | viability, normalised (%)
CSNK2A2 (GeneID 1459) | 1 | 94.9
CSNK2A2 (GeneID 1459) | 2 | 108
CSNK2A2 (GeneID 1459) | 3 | 93.6
RIPK2 (GeneID 8767) | 1 | 96.9
RIPK2 (GeneID 8767) | 2 | 92
RIPK2 (GeneID 8767) | 3 | 73.7 (active)
CKMT1B (GeneID 1159) | 1 | 89.9
CKMT1B (GeneID 1159) | 2 | 82.9
CKMT1B (GeneID 1159) | 3 | 92.9
BDP1 (GeneID 55814) | 1 | 61.3 (active)
BDP1 (GeneID 55814) | 2 | 69.8 (active)
BDP1 (GeneID 55814) | 3 | 71.9 (active)
WAPL (GeneID 23063) | 1 | 93.6
WAPL (GeneID 23063) | 2 | 68.7 (active)
WAPL (GeneID 23063) | 3 | 81.7
